Measurements as given in the supplement of paper PMC10849652.
The list shows a part of the results.

By UniProt entry, the sequences of proteins in these tests, tags left out. Where a name states a change or a piece, a line headed by the entry shows the natural chain unless it says otherwise.
UniProt Q9HC77: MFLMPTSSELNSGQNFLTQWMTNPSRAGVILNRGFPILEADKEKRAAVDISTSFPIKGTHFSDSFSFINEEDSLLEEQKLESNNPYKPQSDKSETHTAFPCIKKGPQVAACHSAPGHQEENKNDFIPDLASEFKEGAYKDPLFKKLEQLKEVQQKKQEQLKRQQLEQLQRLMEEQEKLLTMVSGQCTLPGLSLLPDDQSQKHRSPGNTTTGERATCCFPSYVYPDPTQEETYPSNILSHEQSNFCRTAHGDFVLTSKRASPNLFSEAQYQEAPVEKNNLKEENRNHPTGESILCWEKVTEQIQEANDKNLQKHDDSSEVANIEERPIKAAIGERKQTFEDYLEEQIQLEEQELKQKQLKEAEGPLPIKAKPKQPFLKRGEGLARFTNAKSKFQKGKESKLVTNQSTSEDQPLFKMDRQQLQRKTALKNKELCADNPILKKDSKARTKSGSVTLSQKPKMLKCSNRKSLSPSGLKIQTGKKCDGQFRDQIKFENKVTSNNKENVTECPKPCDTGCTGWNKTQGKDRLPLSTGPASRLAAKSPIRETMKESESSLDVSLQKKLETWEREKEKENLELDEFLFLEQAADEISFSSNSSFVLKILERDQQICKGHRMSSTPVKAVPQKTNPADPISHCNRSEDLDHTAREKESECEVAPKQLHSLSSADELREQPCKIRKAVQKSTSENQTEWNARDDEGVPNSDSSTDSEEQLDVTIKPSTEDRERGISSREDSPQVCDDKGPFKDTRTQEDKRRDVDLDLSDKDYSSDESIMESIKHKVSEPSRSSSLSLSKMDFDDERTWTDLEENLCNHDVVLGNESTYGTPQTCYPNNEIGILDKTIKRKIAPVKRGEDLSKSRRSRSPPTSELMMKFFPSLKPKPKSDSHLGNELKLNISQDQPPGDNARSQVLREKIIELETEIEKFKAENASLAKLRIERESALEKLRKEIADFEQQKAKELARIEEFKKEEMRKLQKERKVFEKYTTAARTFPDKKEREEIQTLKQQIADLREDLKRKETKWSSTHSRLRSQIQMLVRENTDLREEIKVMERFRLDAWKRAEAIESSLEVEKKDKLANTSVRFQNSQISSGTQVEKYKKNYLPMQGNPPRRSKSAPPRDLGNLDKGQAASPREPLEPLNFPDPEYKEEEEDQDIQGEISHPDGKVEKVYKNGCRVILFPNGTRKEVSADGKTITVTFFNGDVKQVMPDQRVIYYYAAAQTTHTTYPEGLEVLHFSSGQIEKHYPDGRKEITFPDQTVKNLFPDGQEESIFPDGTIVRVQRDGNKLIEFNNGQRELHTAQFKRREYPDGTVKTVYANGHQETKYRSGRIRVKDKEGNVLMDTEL
UniProt Q6ZMG9: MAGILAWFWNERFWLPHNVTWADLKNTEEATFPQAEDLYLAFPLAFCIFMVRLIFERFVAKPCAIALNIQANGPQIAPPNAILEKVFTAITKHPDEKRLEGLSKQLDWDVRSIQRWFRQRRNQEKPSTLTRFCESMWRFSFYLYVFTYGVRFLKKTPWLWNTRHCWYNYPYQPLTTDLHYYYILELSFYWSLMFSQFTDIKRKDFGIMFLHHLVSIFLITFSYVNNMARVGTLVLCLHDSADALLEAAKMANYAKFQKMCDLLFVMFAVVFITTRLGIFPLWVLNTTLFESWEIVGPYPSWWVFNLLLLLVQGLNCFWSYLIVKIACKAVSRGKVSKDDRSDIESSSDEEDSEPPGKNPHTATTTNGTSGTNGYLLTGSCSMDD
UniProt Q9BSY4: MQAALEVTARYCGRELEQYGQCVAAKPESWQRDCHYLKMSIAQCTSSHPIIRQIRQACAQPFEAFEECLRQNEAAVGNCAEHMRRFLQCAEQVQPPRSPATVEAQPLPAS
UniProt O14519: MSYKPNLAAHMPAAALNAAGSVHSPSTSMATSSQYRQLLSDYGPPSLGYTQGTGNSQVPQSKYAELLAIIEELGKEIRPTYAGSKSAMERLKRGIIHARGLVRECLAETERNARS
UniProt Q9NRR3: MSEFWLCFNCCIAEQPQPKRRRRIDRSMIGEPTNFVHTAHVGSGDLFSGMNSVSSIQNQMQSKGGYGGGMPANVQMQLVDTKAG
UniProt O75419: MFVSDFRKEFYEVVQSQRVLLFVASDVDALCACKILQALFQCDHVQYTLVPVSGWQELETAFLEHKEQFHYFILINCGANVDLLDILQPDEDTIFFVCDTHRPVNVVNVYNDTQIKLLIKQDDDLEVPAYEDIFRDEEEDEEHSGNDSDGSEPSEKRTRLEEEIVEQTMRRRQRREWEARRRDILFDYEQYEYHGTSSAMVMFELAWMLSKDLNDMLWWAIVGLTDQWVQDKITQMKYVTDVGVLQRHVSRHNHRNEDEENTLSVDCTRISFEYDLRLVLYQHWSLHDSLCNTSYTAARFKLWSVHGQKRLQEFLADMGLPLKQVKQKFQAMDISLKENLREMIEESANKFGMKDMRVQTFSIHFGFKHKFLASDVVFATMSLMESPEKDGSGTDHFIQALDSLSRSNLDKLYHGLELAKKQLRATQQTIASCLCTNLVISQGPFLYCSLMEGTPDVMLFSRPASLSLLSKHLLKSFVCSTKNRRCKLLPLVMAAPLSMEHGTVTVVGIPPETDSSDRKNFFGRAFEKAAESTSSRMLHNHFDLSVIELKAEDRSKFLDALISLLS
UniProt Q15517: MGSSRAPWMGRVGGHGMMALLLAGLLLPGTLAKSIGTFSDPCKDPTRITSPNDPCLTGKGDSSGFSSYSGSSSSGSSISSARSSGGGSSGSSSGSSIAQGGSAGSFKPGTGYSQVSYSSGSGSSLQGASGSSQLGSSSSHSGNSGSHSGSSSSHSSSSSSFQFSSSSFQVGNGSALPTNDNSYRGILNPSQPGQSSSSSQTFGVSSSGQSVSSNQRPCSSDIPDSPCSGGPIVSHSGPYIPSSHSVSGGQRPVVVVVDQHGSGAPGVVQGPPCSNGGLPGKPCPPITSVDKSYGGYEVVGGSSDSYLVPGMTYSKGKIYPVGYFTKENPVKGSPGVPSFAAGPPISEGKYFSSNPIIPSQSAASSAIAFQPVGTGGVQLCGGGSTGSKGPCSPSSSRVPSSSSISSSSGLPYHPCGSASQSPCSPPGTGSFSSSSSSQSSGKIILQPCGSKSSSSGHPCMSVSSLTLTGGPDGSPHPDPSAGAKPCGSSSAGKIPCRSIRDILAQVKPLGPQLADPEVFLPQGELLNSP
UniProt Q9P2B7: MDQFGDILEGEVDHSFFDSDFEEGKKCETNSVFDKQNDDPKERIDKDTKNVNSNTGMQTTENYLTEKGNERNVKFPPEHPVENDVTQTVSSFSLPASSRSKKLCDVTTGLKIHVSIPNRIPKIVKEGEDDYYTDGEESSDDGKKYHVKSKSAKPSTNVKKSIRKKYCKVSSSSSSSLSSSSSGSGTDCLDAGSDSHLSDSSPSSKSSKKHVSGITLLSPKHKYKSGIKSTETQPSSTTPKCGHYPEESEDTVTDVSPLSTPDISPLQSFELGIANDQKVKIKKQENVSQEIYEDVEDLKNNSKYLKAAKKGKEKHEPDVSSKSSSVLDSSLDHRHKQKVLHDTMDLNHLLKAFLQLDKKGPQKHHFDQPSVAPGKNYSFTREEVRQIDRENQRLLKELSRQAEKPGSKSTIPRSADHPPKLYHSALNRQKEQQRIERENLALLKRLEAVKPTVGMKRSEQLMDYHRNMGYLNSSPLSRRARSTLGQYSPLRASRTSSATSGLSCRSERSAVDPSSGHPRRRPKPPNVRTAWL
UniProt Q8TEP8: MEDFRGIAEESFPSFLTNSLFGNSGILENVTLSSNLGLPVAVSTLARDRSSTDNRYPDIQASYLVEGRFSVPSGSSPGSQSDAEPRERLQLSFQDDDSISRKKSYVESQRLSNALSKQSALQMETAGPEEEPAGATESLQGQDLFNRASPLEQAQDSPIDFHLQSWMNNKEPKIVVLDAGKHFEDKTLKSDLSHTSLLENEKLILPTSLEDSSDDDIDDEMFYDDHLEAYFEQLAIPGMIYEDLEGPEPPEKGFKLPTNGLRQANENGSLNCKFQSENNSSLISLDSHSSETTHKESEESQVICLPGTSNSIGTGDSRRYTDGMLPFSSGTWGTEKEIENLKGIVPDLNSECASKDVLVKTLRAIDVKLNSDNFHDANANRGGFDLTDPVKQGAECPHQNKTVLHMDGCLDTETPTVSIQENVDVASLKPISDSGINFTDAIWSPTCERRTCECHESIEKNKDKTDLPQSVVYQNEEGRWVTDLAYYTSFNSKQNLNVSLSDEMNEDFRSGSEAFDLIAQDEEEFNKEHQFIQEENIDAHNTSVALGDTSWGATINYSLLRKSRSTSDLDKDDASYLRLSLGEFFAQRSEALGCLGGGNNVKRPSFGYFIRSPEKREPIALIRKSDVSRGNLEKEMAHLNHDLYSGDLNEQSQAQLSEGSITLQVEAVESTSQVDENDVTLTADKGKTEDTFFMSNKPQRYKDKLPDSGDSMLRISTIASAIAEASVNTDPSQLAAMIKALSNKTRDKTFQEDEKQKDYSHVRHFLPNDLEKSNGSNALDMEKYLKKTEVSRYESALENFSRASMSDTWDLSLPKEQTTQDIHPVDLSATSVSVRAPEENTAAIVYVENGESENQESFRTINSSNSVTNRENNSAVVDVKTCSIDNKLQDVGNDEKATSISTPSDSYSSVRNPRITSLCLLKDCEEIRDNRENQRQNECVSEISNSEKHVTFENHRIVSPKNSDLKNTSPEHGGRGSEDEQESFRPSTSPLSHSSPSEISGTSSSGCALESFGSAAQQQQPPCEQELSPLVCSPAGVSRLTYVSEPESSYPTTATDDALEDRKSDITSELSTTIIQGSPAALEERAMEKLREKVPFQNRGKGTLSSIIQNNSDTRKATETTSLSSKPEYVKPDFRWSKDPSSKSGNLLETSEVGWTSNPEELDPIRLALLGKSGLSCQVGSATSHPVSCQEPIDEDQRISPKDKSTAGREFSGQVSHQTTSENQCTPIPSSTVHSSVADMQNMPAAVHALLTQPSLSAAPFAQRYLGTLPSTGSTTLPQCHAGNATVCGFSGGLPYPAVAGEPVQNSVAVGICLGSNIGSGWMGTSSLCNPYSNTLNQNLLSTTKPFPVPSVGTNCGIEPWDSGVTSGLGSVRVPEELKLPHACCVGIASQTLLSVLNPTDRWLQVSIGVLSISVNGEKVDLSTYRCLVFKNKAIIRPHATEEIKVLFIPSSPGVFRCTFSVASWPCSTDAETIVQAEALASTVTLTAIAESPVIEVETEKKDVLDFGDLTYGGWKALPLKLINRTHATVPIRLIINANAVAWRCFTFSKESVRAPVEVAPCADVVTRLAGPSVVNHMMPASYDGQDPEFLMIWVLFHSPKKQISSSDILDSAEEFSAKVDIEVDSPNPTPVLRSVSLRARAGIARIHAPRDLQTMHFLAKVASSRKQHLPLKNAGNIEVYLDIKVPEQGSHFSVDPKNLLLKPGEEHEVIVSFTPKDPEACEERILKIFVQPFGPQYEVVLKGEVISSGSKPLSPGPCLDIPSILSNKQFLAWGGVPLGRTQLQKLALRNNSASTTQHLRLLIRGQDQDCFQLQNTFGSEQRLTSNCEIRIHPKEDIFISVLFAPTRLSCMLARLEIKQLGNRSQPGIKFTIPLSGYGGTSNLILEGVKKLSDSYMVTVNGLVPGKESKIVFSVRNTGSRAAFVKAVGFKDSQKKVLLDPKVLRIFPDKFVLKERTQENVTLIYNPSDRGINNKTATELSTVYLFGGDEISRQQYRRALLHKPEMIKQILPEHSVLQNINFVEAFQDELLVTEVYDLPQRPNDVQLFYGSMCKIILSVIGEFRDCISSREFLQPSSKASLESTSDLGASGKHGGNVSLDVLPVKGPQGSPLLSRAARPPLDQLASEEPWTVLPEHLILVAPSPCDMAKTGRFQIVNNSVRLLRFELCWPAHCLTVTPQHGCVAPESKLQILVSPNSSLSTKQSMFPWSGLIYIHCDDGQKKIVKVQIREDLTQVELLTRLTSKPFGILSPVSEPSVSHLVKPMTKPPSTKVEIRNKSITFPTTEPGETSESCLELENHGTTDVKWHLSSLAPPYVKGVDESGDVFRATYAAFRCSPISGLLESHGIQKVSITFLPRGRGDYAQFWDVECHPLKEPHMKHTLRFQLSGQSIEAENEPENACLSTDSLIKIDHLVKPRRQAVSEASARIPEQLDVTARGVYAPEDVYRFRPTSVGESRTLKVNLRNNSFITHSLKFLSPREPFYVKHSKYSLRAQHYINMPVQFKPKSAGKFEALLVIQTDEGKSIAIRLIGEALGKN
UniProt Q8N2Z9: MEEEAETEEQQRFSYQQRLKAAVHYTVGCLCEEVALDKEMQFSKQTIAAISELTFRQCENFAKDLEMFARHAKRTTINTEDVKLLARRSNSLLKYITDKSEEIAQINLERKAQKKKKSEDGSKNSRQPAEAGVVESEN
UniProt P42773: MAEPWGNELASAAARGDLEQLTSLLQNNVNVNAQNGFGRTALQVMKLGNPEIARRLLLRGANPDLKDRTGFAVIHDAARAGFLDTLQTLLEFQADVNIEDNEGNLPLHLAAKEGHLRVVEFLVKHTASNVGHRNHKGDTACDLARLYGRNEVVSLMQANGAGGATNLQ

Legend:
Test in all cases: log2 fold change, soluble protein after heating vs DMSO (PISA); higher = thermal stabilisation; K562 cells, 10 uM, 30 min; active = over 0.2 and 3.5 SD of the protein, either way, in both replicates (recomputed)
[1] = compound: CC1=C(C=C(C=C1)NC(=O)C2=CC(=CC=C2)C(C)(C)C#N)NC3=CC4=C(C=C3)N=CN(C4=O)C
Summary of the method: (§1)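 Thermal stability values are relative to control samples and come from duplicates. They are expressed as log2 fold changes. For measurement, K562 cells (2×10^6 cells/mL) received 10 μM compound for 30 min, and aliquots were heated for 3 min over 48°C-58°C, pooled, and extracted at 4°C in PBS with 0.5% NP-40. Soluble protein, the supernatant after 21,000xg for 90 min, was quantified by TMTpro 16plex LC-MS/MS with equalised channel sums.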

[2] = compound: CC1=C(C=C(C=C1)NC(=O)C2=CC(=CC=C2)N(C)C)NC(=O)C3=CC=C(C=C3)O
Summary of the method: as §1

[3] = compound: CC1=CC=C(C=C1)SC2=C3C=C(SC3=CN=C2)C(=O)N
Summary of the method: as §1

[4] = compound: CC1=NC(=CC=C1)C2=C(N=C(N2)C(C)(C)C)C3=CC4=NC=CN=C4C=C3
Summary of the method: as §1

Nexturastat A = compound: CCCCN(Cc1ccc(C(=O)NO)cc1)C(=O)Nc1ccccc1 [Nexturastat A]
Summary of the method: as §1

[5] = compound: CCCS(=O)(=O)Nc1ccc(F)c(C(=O)c2c[nH]c3ncc(Cl)cc23)c1F
Summary of the method: as §1

givinostat = compound: CCN(CC)Cc1ccc2cc(COC(=O)Nc3ccc(C(=O)NO)cc3)ccc2c1 [givinostat]
Summary of the method: as §1

volasertib = compound: CC[C@@H]1C(=O)N(C)c2cnc(Nc3ccc(C(=O)N[C@H]4CC[C@H](N5CCN(CC6CC6)CC5)CC4)cc3OC)nc2N1C(C)C [volasertib]
Summary of the method: as §1

epoxomicin = compound: CC[C@H](C)[C@@H](C(=O)N[C@@H]([C@@H](C)O)C(=O)N[C@@H](CC(C)C)C(=O)[C@]1(CO1)C)NC(=O)[C@H]([C@@H](C)CC)N(C)C(=O)C [epoxomicin]
Summary of the method: as §1

[6] = compound: CCn1c(C(=O)N(C2CC2)C2CC2)cc2c3c(ncn3C)c(Nc3cc(C)n(C)n3)nc21
Summary of the method: as §1

[7] = compound: CCCc1cc(C)[nH]c(=O)c1CNC(=O)c1cc(-c2ccnc(N3CCN(C)CC3)c2)cc2c1cnn2C(C)C
Summary of the method: as §1

[8] = compound: CCn1cc(-c2ccnc3[nH]c(-c4cccc(CN(C)C)c4)cc23)c(-c2ccc(NC(=O)N(C)C)cc2)n1
Summary of the method: as §1

[9] = compound: CN1C2=C(C3=C1C(=O)N(N=C3)CC4=CC(=CC=C4)N)SC(=C2)S(=O)C
Summary of the method: as §1

[10] = compound: CN1CCC(CNc2ccc3ncc(-c4cccc(OC(F)(F)F)c4)n3n2)CC1
Summary of the method: as §1

vemurafenib = compound: CCCS(=O)(=O)Nc1ccc(F)c(C(=O)c2c[nH]c3ncc(-c4ccc(Cl)cc4)cc23)c1F [vemurafenib]
Summary of the method: as §1

barasertib = compound: CCN(CCCOc1ccc2c(Nc3cc(CC(=O)Nc4cccc(F)c4)[nH]n3)ncnc2c1)CCOP(=O)(O)O [barasertib]
Summary of the method: as §1

[11] = compound: CC[C@@H]1C(=O)N(C)c2cnc(Nc3ccc(C(=O)NC4CCN(C)CC4)cc3OC)nc2N1C1CCCC1
Summary of the method: as §1

[12] = compound: CC[C@H](C)N1C=C(C2=C(C=C(C=C21)C3=CN=C(C=C3)N4CCNCC4)C(=O)NCC5=C(C=C(NC5=O)C)C)C
Summary of the method: as §1

[13] = compound: CN(C)CC(=O)Nc1ccc2[nH]c(=O)c3ccccc3c2c1
Summary of the method: as §1

rosiglitazone = compound: CN(CCOC1=CC=C(C=C1)C[C@H]2C(=O)NC(=O)S2)C3=CC=CC=N3 (racemic) [rosiglitazone]
Summary of the method: as §1

Measured: log2 fold change

CENPJ (UniProt Q9HC77)
inactive: [1] -0.108 | [2] 0.024 | [3] -0.03 | [4] 0.196 | Nexturastat A 0.006 | [5] -0.063 | givinostat 0.158 | volasertib -0.105 | epoxomicin -0.013 | [6] 0.021

CEP131 (UniProt Q9UPN4)
inactive: [1] -0.2 | [3] 0.11 | [4] 0.006 | Nexturastat A 0.191 | [5] 0.037 | [7] 0.241 | givinostat -0.002 | volasertib 0.063 | epoxomicin -0.135 | [6] -0.043 | [8] -0.067 | [9] 0.086 | [10] 0.085

CERS6 isoform 2 (UniProt Q6ZMG9)
inactive: [1] -0.099 | [3] 0.022 | Nexturastat A -0.083 | vemurafenib -0.041 | [5] 0 | [7] 0.048 | givinostat -0.012 | barasertib 0.022 | [11] 0.007 | volasertib 0.07 | [12] 0.003 | epoxomicin -0.034 | [6] 0.066 | [8] -0.005 | [13] -0.021 | rosiglitazone -0.004 | [9] 0.021 | [10] -0.013

2 records drawn at random from the list so far:
CERS6 isoform 2 (UniProt Q6ZMG9)
inactive: [1] -0.099 | [3] 0.022 | Nexturastat A -0.083 | vemurafenib -0.041 | [5] 0 | [7] 0.048 | givinostat -0.012 | barasertib 0.022 | [11] 0.007 | volasertib 0.07 | [12] 0.003 | epoxomicin -0.034 | [6] 0.066 | [8] -0.005 | [13] -0.021 | rosiglitazone -0.004 | [9] 0.021 | [10] -0.013

CENPJ (UniProt Q9HC77)
inactive: [1] -0.108 | [2] 0.024 | [3] -0.03 | [4] 0.196 | Nexturastat A 0.006 | [5] -0.063 | givinostat 0.158 | volasertib -0.105 | epoxomicin -0.013 | [6] 0.021

(continued)

CEP135 (UniProt Q66GS9)
inactive: [1] 0.151 | [4] -0.128 | Nexturastat A 0.16 | barasertib 0.051 | [11] -0.078 | epoxomicin 0.108 | [8] -0.079 | rosiglitazone 0.196 | [9] 0.171 | [10] 0.206

CHCHD5 (UniProt Q9BSY4)
inactive: [1] 0 | [2] -0.039 | [3] 0.013 | [4] 0.083 | [5] 0.032 | [7] 0.014 | givinostat -0.081 | barasertib 0.092 | volasertib -0.059 | [12] 0.054 | [6] -0.003 | rosiglitazone -0.069

CDK2AP1 (UniProt O14519)
inactive: [1] 0 | [2] 0.05 | [3] -0.008 | Nexturastat A -0.111 | [5] -0.096 | [7] 0.047 | givinostat 0.049 | barasertib 0.01 | [11] 0.057 | volasertib -0.081 | [12] 0.078 | epoxomicin 0.013 | [6] 0.033 | [8] 0.101 | rosiglitazone 0.172 | [10] 0.127

CDKN1C (UniProt P49918)
inactive: [1] 0.044 | [2] -0.021 | Nexturastat A 0.091 | [7] 0.05 | barasertib -0.037 | [11] 0.242 | epoxomicin 0.571 | [8] -0.363 | rosiglitazone -0.004 | [9] 0.002 | [10] 0.172

CDC42SE2 (UniProt Q9NRR3)
inactive: [1] 0.035 | [3] 0.057 | Nexturastat A 0.037 | vemurafenib 0.161 | [5] 0 | [7] 0.143 | givinostat 0.231 | barasertib 0.06 | [11] 0.174 | volasertib 0.348 | [12] -0.025 | epoxomicin 0.122 | [6] 0.042 | [13] 0.161 | rosiglitazone -0.042

CDC45 isoform 3 (UniProt O75419)
inactive: [1] -0.207 | [2] 0 | [3] 0.08 | [4] 0.019 | Nexturastat A 0.078 | [5] 0.032 | [11] -0.254 | volasertib -0.329 | [12] 0.264 | epoxomicin -0.105 | [8] 0.031 | [9] 0.137 | [10] -0.116

CEP120 (UniProt Q8N960)
inactive: [1] 0.117 | [2] -0.058 | [3] -0.242 | [4] -0.349 | Nexturastat A 0.33 | vemurafenib 0.006 | [5] 0.034 | [7] 0.41 | barasertib -0.047 | volasertib -0.043 | epoxomicin -0.062 | [13] -0.101 | rosiglitazone 0.152

CFB (UniProt P00751)
inactive: [1] -0.433 | [2] 0.5 | vemurafenib 0.18 | [7] -0.33 | givinostat -0.202 | barasertib 0.04 | [11] -0.366 | [12] -0.128 | [6] 0.154 | [8] 0.107 | [13] -0.071 | rosiglitazone 0.047 | [9] 0.347 | [10] 0.067

CDSN (UniProt Q15517)
inactive: [1] -0.15 | [3] 0.061 | [4] -0.172 | Nexturastat A 0.272 | vemurafenib 0.503 | [5] -0.145 | [7] -0.016 | barasertib 0.292 | [11] 0.524 | volasertib 0.281 | [12] -0.069 | epoxomicin 0.796 | [8] 0.036 | [13] 1.04 | rosiglitazone -0.027 | [9] 0.259 | [10] -0.348

CHD5 (UniProt Q8TDI0)
inactive: [1] -0.029 | [2] -0.001 | [3] -0.046 | Nexturastat A 0.261 | vemurafenib 0.055 | [5] 0.096 | [7] -0.004 | givinostat 0.297 | barasertib 0.053 | [11] -0.128 | volasertib -0.158 | [12] 0.261 | epoxomicin 0.18 | [6] -0.055 | [8] -0.025 | [13] 0.075 | rosiglitazone 0.01 | [9] 0.107 | [10] -0.201

CFAP97 (UniProt Q9P2B7)
inactive: [1] -0.085 | [2] -0.027 | [3] 0.108 | [4] -0.041 | Nexturastat A 0.276 | vemurafenib -0.149 | [5] -0.031 | givinostat 0.1 | barasertib -0.088 | volasertib 0.114 | epoxomicin 0.006 | [6] -0.062 | [8] 0.027 | [13] -0.082 | rosiglitazone -0.049 | [9] -0.021 | [10] -0.131

CENPE (UniProt Q02224)
inactive: [1] -0.018 | [2] 0.063 | [3] 0.022 | [4] -0.096 | vemurafenib 0.047 | [5] -0.108 | givinostat 0.285 | barasertib -0.1 | volasertib 0.137 | [8] -0.039 | [13] -0.061 | [9] -0.255 | [10] 0.192

CEP192 (UniProt Q8TEP8)
inactive: [1] -0.14 | [3] 0.231 | [4] -0.188 | Nexturastat A -0.061 | vemurafenib -0.054 | [5] 0.088 | [7] -0.14 | givinostat 0.028 | barasertib 0.028 | [11] -0.009 | volasertib -0.091 | [12] -0.12 | epoxomicin -0.059 | [6] -0.002 | [8] -0.096 | [13] -0.122 | rosiglitazone -0.002 | [9] -0.067 | [10] -0.106

CENPS (UniProt Q8N2Z9)
inactive: [1] -0.03 | [3] -0.084 | [4] -0.171 | Nexturastat A -0.017 | vemurafenib 0.041 | [5] -0.004 | [7] -0.046 | givinostat -0.025 | barasertib 0.123 | [11] -0.156 | volasertib -0.057 | [12] -0.032 | epoxomicin 0.059 | [6] 0.016 | [8] -0.009 | [13] -0.009 | rosiglitazone -0.097 | [9] 0.007 | [10] 0.014

CDK19 (UniProt Q9BWU1)
inactive: [1] -0.032 | [2] 0.212 | [3] 0.246 | Nexturastat A -0.039 | vemurafenib 0.057 | [5] -0.026 | [7] -0.109 | givinostat -0.133 | [11] 0.016 | volasertib -0.064 | [12] 0.069 | epoxomicin -0.114 | [8] -0.1 | [13] -0.068 | [9] 0.003 | [10] 0.456

CHIC2 (UniProt Q9UKJ5)
inactive: [1] 0.009 | [2] 0.074 | [3] -0.002 | Nexturastat A 0.043 | vemurafenib 0.006 | [5] 0.094 | [7] -0.027 | givinostat -0.043 | barasertib -0.227 | [11] 0.011 | volasertib 0.006 | [12] 0.158 | epoxomicin -0.004 | [6] 0.039 | [8] -0.002 | [13] 0.045 | rosiglitazone 0.025 | [9] 0.061 | [10] 0.055

CHIC1 (UniProt Q5VXU3)
inactive: [1] -0.096 | [2] -0.064 | [3] -0.015 | Nexturastat A 0.216 | [5] -0.089 | [7] -0.352 | givinostat -0.134 | barasertib 0.175 | [11] 0.1 | volasertib -0.177 | [12] -0.157 | epoxomicin -0.422 | [6] -0.045 | [8] -0.045 | rosiglitazone 0.108 | [9] 0.029 | [10] -0.076

CDKN2C (UniProt P42773)
inactive: [1] -0.021 | [2] -0.097 | [3] 0.029 | [4] -0.034 | vemurafenib 0.085 | [5] -0.057 | [7] -0.057 | givinostat -0.092 | barasertib 0.11 | [11] 0.057 | volasertib -0.085 | [12] -0.071 | [6] -0.01 | [8] -0.001 | [13] -0.008 | rosiglitazone 0.029 | [9] -0.018 | [10] 0.054
